Taken from: PubChem BioAssay AID504774 (Drosophila RNAi Screening Center, 2011)

Aim: 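Fly genes whose loss alters survival after alkylation damage to DNA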 (primary screen)
Cell system: Drosophila Kc167 cells
Knock-down reagent: long dsRNA against Drosophila genes, about 0.25 µg dsRNA per well
Timing: about 6 days: 3 days knock-down, then 3 days with or without MMS
Treatment: methyl methanesulphonate 0.004% (w/v) for 3 days after knock-down
Measurement: 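Viability in wells given MMS, read as ATP luminescence, normalised by quantiles plate by plate and averaged across replicates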
Scale: mean viability with MMS: higher = more surviving cells after MMS
The screen tested about 23,000 reagents; below is a random part of those with a known target gene and a result. 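Values are quantile-normalised luminescence on an arbitrary scale; higher means more cells surviving MMS.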 The numbers tell different reagents against one gene apart. Further read-outs or replicates are left out here.

CG14089 | mean viability with MMS = 3.54e6
E23 #1 | mean viability with MMS = 2.67e6
E23 #2 | mean viability with MMS = 3.42e6
Naa35 | mean viability with MMS = 3.46e6
mRpS28 | mean viability with MMS = 3.73e6
Ets97D | mean viability with MMS = 3.65e6
Spn28Db | mean viability with MMS = 3.61e6
CG33557 | mean viability with MMS = 3.69e6
CG3546 | mean viability with MMS = 3.38e6
XRCC1 | mean viability with MMS = 3.57e6
msi | mean viability with MMS = 2.98e6
thoc7 | mean viability with MMS = 3.49e6
CG4766 | mean viability with MMS = 3.89e6
CG1663 #1 | mean viability with MMS = 3.46e6
CG1663 #2 | mean viability with MMS = 3.65e6
